A short description of this assay: qHTS Assay for Lipid Storage Modulators in Drosophila S3 Cells.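 On cell number change: cells counted by Cell Tracker Red CMTPX staining in the red channel.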 The following applies: BODIPY lipid droplet fluorescence, 18-24 h; for cell number change: measured here: cell count max response, cells fed with added oleic acid. The gist of the method: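 Drosophila S3 cells loaded with oleic acid (400 uM, as added) and compounds at several concentrations; lipid droplets imaged by 488-nm laser-scanning cytometry, 500–530 nm intensity and object ratio to cell channel. Percent activity normalized to 20 uM Triacsin C.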
Background: Quantitative high-throughput screening tests each substance at several concentrations.

[1] abbreviates: measured here: cell number channel AC50, cells fed with added oleic acid.
Where [2] appears, read: measured here: lipid fluorescence (Fed channel) AC50, cells fed with added oleic acid.

This is one part of the list. These are further read-outs of the screen, such as a control signal, another cell line or another target. No call is given for them. Most of these compounds were active or inconclusive in the main read-out, so they are no random draw. Words in brackets tell the shape of the fitted curve; partial curves, single points and poor fits give uncertain potencies.

For orientation: AC50 means the midpoint of the concentration-response curve, whichever way the signal moves. Lower therefore signals activity at low concentration. As to `C=C(C)C(=O)OC1(C(F)(F)F)Oc2cc(C)ccc2NC1=O` (stereo unspecified), the cell number change was -43.3%. For the same compound, under setting [1], the AC50 is 0.092 µM [falling, full curve, poor fit]. Moreover, the AC50 under setting [2] was 1.16 µM [falling, full curve]. Turning to `CN(c1ccc(C(=O)N2CCN(c3ccccc3F)CC2)cc1)S(=O)(=O)c1ccccc1`, the cell number change turned out to be 2.86%. As for `Cc1ccc(O)c(C(=O)c2cnn(C(=O)COc3ccccc3C#N)c2)c1`, the cell number change is 29.4%. For the same compound, the AC50 under setting [2] is 1.03 µM [rising, full curve, poor fit]. On to `CC1(C)NC(=O)N(CC(=O)OCC(=O)N2CCN(S(=O)(=O)c3ccccc3)CC2)C1=O`, for which the cell number change is -6.83%. Turning to `COc1ccc(C(C(=O)NCC2CCCO2)N(Cc2ccccc2)C(=O)CNC(=O)c2ccco2)cc1OC` (stereo unspecified), the cell number change worked out at 3.81%. Also, the AC50 under setting [2] is 29.1 µM [rising, single point].

As for `CSc1ccc(CN(C)CC(=O)NC(=O)NC(C)(C)C)cc1`, the cell number change is -0.354%. Consider `Cc1sc(NC(=O)c2ccccc2F)c(CN2CCCCC2)c1C`, for which the cell number change is -7.78%. Further, the AC50 under setting [1] is 6.51 µM [rising, single point]. Under setting [2], the half-maximal activity concentration (AC50) is 1.84 µM [falling, partial curve].

Consider `Cn1c(=O)n(C)c2cc(/C=N/NC(=S)NCc3ccccc3)ccc21`, for which the cell number change was 13.7%. Besides, the AC50 under setting [2] was 0.082 µM [rising, full curve, poor fit]. Regarding `Cc1ccc2nc(SCC(=O)Nc3c(F)cccc3F)[nH]c2c1`, the cell number change is -57.6%. For the same compound, the AC50 under setting [1] was 16.4 µM [falling, partial curve]. Moreover, the AC50 under setting [2] is 23.1 µM [falling, partial curve, poor fit]. In the case of `O=C1CCC(C(=O)N(Cc2ccco2)C2(C(=O)NC3CCCC3)CCCCC2)N1` (stereo unspecified), the cell number change was -33.2%. The AC50 under setting [1] is 0.13 µM [falling, full curve]. Further, under setting [2], the AC50 is 1.3 µM [falling, full curve]. `COc1ccc(/C=C2\SC(=S)N(CC(=O)NNC(=O)c3ccncc3)C2=O)cc1`: the cell number change came to 53.2%. Further, the half-maximal activity concentration (AC50) under setting [1] is 29.1 µM [rising, single point]. Besides, the AC50 under setting [2] was 4.61 µM [rising, partial curve, poor fit]. With `Cc1ccccc1NS(=O)(=O)c1cc(C(=O)NCCC2=CCCCC2)ccc1C`, the cell number change is -26.1%. For the same compound, the AC50 under setting [2] is 0.164 µM [falling, full curve, poor fit]. Take `NC(=O)C1CCCN(Cc2ccc(Cl)cc2)C1` (stereo unspecified): the AC50 under setting [2] was 23.1 µM [falling, partial curve]. As for `CC1(C)CC2(CCO1)OC(=O)CC2C(=O)NCCc1ccccc1` (stereo unspecified), the cell number change stood at 10.4%. As for `CCOCCOC(=O)c1[nH]c2c(c1C)C(=O)CC(c1ccc(OC)c(OC)c1)C2` (stereo unspecified), the cell number change was -37.4%. Under setting [1], the AC50 is 20.6 µM [falling, single point]. The AC50 under setting [2] is 18.4 µM [falling, single point].

Regarding `CCOc1cccc2cc(C(N)=O)c(=N)oc12`, the cell number change came to 15.1%. Moreover, the AC50 under setting [2] was 3.26 µM [rising, partial curve]. For `CC(=O)c1ccc(N(CC(=O)NC2CCCCC2)C(=O)CNC(=O)c2ccco2)cc1`, the cell number change stood at 24.4%. In addition, under setting [2], the AC50 is 6.51 µM [rising, partial curve]. With `O=C(c1ccco1)c1nc2c(n1O)CCCCC2`, the cell number change was -17.6%. Moreover, under setting [1], the AC50 was 0.116 µM [falling, full curve, poor fit]. In addition, the AC50 under setting [2] was 6.51 µM [falling, single point]. Regarding `COCCNC(=S)NNc1ccc(Cl)c(C(=O)O)c1`, the cell number change is -11.3%. Besides, under setting [2], the AC50 is 29.1 µM [falling, single point]. Turning to `Cc1ccc(C)c(N2CCN(C(=O)CN3C(=S)NC(C)(C)CC3C)CC2)c1` (stereo unspecified), the AC50 under setting [1] is 0.731 µM [rising, single point]. Regarding `CCOC(=O)CSc1nnc(-c2cc(OC)c(OC)c(OC)c2)o1`, the cell number change is 26.3%. For `CCOC(=O)c1nnn(-c2nonc2N)c1-c1cccc2ccccc12`, the cell number change was determined as 94.3%. The AC50 under setting [1] was 18.4 µM [rising, single point].

Turning to `COc1cccc2oc3cc(C#CC4(O)CCCCC4)ccc3c(=O)c12`, the cell number change is -37.4%. Besides, the AC50 under setting [1] was 36.6 µM [falling, partial curve, poor fit]. In addition, under setting [2], the AC50 was 1.16 µM [rising, single point]. As to `COc1cccc(-c2nc(-c3ccc(NC(=O)c4cccs4)cc3)no2)c1`, the cell number change came out at 118%. As to `COC(=O)C1=C(C)N(c2ccc(F)cc2)C(=O)C1`, the cell number change was -10.7%. In addition, the AC50 under setting [1] is 0.731 µM [falling, partial curve, poor fit]. Take `O=S(=O)(Nc1cccc(C(F)(F)F)c1)c1cnc[nH]1`: the cell number change is -6.69%. Also, the AC50 under setting [2] is 14.6 µM [falling, partial curve]. On to `CN(CC(=O)Nc1ccc(N2CCOCC2)cc1)CC(=O)Nc1ccccc1[N+](=O)[O-]`, for which the cell number change stood at 79.1%. Moreover, under setting [1], the half-maximal activity concentration (AC50) was 11.6 µM [rising, partial curve]. Under setting [2], the AC50 was 16.4 µM [rising, partial curve]. As for `COc1ccccc1NC(=O)C(=O)/C=C(\O)c1ccccc1`, the cell number change is -15.6%. The AC50 under setting [2] is 0.082 µM [falling, full curve, poor fit]. As for `COCCN(Cc1nc2ccccc2c(=O)[nH]1)C(=O)COc1ccccc1-c1ccccc1`, the cell number change was -7.3%. The AC50 under setting [1] is 0.731 µM [falling, single point].

With `CC(C)CN(CC(C)C)C(=O)Nc1ccccc1F`, the cell number change was -27.1%. The AC50 under setting [2] was 29.1 µM [falling, single point]. Regarding `CCN(CC(=O)NCc1cccs1)C(=O)C(c1ccccc1)c1ccccc1`, the cell number change stood at 5.56%. In addition, the AC50 under setting [2] is 29.1 µM [rising, single point].

Take `Clc1ccc(-c2nnn(Cc3nc4ccccc4s3)n2)cc1`: the cell number change was determined as 31%. For the same compound, the AC50 under setting [1] is 29.1 µM [rising, single point].

With `Cn1c(=O)c2c(nc(N3CCCC3)n2C)n(C)c1=O`, the cell number change is -34%. Besides, the AC50 under setting [1] was 2.31 µM [falling, partial curve]. Further, under setting [2], the AC50 was 6.51 µM [falling, full curve].

For `Cc1c(C(=O)N(C)CCn2ccnc2C)oc2c(F)cccc12`, the cell number change amounted to 13.4%. Turning to `O=C(c1cccc(NC2=NC3CS(=O)(=O)CC3S2)c1)N1CCN(c2ccc(F)cc2)CC1` (stereo unspecified), the cell number change was -1.73%. Besides, the AC50 under setting [2] is 29.1 µM [rising, single point]. For the compound `O=C(NC(Cc1ccccc1)C(=O)O)/C(=C/c1cccc([N+](=O)[O-])c1)NC(=O)c1ccco1` (stereo unspecified), the cell number change turned out to be 13.5%. For `COc1ccc(NC(=S)Nc2cccc(C(F)(F)F)c2)c(C)c1`, the cell number change came out at 24.9%. Under setting [2], the AC50 was 0.1 µM [rising, full curve, poor fit].

Turning to `COc1cc(NC(=O)CSc2ccc(-c3ccco3)nn2)cc(OC)c1`, the cell number change turned out to be 1.73%. As for `CN(C)c1ccc(C(=S)N2CCCCCC2)cc1`, the AC50 under setting [2] is 20.6 µM [rising, partial curve]. As for `CC1(C)C2CC=C(/C=N/NC(=O)c3ccccc3Br)C1C2` (stereo unspecified), the cell number change was -33.5%. For the same compound, under setting [1], the AC50 was 7.31 µM [falling, partial curve]. The AC50 under setting [2] was 7.31 µM [falling, partial curve]. Consider `CCOC(=O)N1CCN(C(=O)c2cc(-c3ccncc3)nc3ccccc23)CC1`, for which the cell number change is 50%. For the same compound, the concentration at half-maximal activity (AC50) under setting [1] is 2.06 µM [rising, full curve, poor fit]. As to `NC(=O)CC(NC(=O)c1cccc(Br)c1)c1ccc(NCCN2CCOCC2)c([N+](=O)[O-])c1` (stereo unspecified), the cell number change worked out at 1.59%. Further, under setting [2], the AC50 was 29.1 µM [falling, single point]. On to `O=S(=O)(NCc1ccncc1)c1ccc(S(=O)(=O)NCC2CCCO2)cc1` (stereo unspecified), for which the cell number change is -15.4%. Further, the AC50 under setting [2] was 2.06 µM [rising, single point]. As for `Cc1cccc2cc(C#N)c(SCC#N)nc12`, the AC50 under setting [1] is 0.058 µM [rising, full curve, poor fit]. `COc1ccc(O)c(C(=O)CC(=O)c2ccc(F)cc2)c1`: the cell number change is -56.9%. For the same compound, under setting [1], the AC50 was 23.1 µM [falling, single point]. The AC50 under setting [2] was 18.4 µM [falling, single point]. With `O=C(COc1ccccc1Cl)NNC(=O)c1cc(S(=O)(=O)N2CCOCC2)ccc1N1CCCC1`, the cell number change is -5.44%. For the same compound, under setting [2], the AC50 is 29.1 µM [rising, single point].

Consider `O=c1c2ccccc2nc(CSc2ncnc3nc[nH]c23)n1-c1cccc(C(F)(F)F)c1`, for which the cell number change is 19.5%. Take `Cc1cccc(CCNC(=O)C2CCC(=O)N2Cc2ccc(F)cc2)c1` (stereo unspecified): the cell number change amounted to 6.92%. Also, the AC50 under setting [2] was 29.1 µM [rising, partial curve, poor fit].

On to `CCCCN1C(=O)C(O)(c2ccccc2)c2cc(Br)ccc21` (stereo unspecified), for which the cell number change was -41%. The AC50 under setting [1] is 16.4 µM [falling, single point]. In addition, the AC50 under setting [2] was 29.1 µM [falling, single point]. On to `COc1ccc(OC)c(N(CC(=O)N2CCOCC2)S(C)(=O)=O)c1`, for which the cell number change worked out at 7.67%. In the case of `COc1cc(NC(=O)c2cc(C)nc3ccccc23)cc(OC)c1OC`, the cell number change is -0.566%. For the same compound, under setting [1], the AC50 is 0.517 µM [falling, single point].

Take `COc1cc(NC(=O)c2cccs2)c(C(=O)OCC(=O)NCc2ccccc2)cc1OC`: the cell number change was -9.51%.

In the case of `O=C(NC(=S)Nc1ccccc1O)c1ccccc1Cl`, the cell number change turned out to be 16.2%. Besides, the AC50 under setting [1] was 0.651 µM [rising, partial curve, poor fit]. Besides, the AC50 under setting [2] was 16.4 µM [rising, single point]. Consider `N#Cc1c(Nc2ccccc2)sc(C(=O)c2ccc(F)cc2)c1N`, for which the cell number change was -55.4%. Under setting [1], the AC50 was 0.259 µM [falling, full curve].

On to `CC(C)N1CC(C(=O)Nc2cccc([N+](=O)[O-])c2)CC1=O` (stereo unspecified), for which the cell number change is -9.85%. Besides, the AC50 under setting [2] was 0.731 µM [falling, full curve, poor fit]. As to `Cc1cc(C)c(OCC(=O)OCC(=O)NCCC2=CCCCC2)c(C)c1`, under setting [1], the AC50 is 2.31 µM [rising, partial curve]. Turning to `CCOCCn1c(=O)c2c(nc3n2CC(C)CN3Cc2ccccc2)n(C)c1=O` (stereo unspecified), the cell number change is -1.79%. Regarding `COc1ccc(/C=C2\CCC/C(=C\c3ccc(OC)c(OC)c3OC)C2=O)c(OC)c1OC`, the cell number change was -2.78%. In addition, the AC50 under setting [1] was 6.51 µM [rising, single point]. Besides, the AC50 under setting [2] was 6.51 µM [falling, partial curve]. Consider `COc1ccccc1/C=C\C=N\n1c(-c2ccc(Cl)cc2Cl)n[nH]c1=S`, for which the AC50 under setting [2] was 2.06 µM [rising, single point]. As to `Cc1cc(C)n2c(SCC(=O)Nc3c(C)n(C)n(-c4ccccc4)c3=O)nnc2n1`, the cell number change is -2.17%. The AC50 under setting [2] is 1.64 µM [rising, partial curve].

For the origin of these results see PubChem BioAssay AID2685 (National Center for Advancing Translational Sciences (NCATS), 2010).
